{"source": "patent US20020146810", "key": {"ICERIIγ (co-transfected)": {"system": "ICERIIγ (co-transfected)", "experiment": "activity in cells", "details": "repression: luciferase significantly reduced (p<0.01) when co-transfected with PKA and CREMτ; protein in cells"}, "[1]": {"system": "CREMτ (co-transfected with PKA)", "experiment": "activity in cells", "details": "luciferase in bone marrow stroma with PKA; protein in cells"}, "[2]": {"system": "ICERIIγ (inducible cAMP early repressor II gamma, CREM isoform)", "experiment": "EMSA", "details": "purified recombinant protein, label: 32P 5' end"}, "[3]": {"details": "2 ug protein, 20 ng probe, 1 h, 4% PAGE, only core site printed"}}, "note": "The exact form of at least one protein or probe is not confirmed. For part of these data: No signal at the amounts used counts as a negative.", "data": [{"sequence": "CGACGGCCCGGCTGGTAAATTCCCCTTTCTCCAAAATGTAAAATAAATCTGCTTCCATCTTCTAAAATACTATGGGACTAAACATCCTTTTGTTATGCTAAGGAAAAGCCAGTATTCGCGTTGATTTAGAAGAGGGATGTTCTGGTTATAGAACGATGCTGTGTCTCAGAAACACTTAAATACTATTAAGCTAGAAATAGAAGGGAAAATAATGCTTCCCCGCATCTCCCCTCAAGTGTAGTCCTCTTTTTTTAGCCTGATTTCCGACGAAATGTCTGAATGCCTACAGTTATTTGGCCATCCTGAAAAGTGCAACTTATCCTGACGTCTCGAGGGACGGAAAAGTTACCGAAGTCCAAGGAATGAGTCACTTTGCTCAAATTTGATGAGTAATATCAGGTGTCATGAAACCCAGTTTCGAAGGAGAGGGGAGGGGGCGTCAGATCTGCAGACGGAAGCAGGCCGCTCCGGATTGGATGGCGAGACCTCGATTTTCCTAAAATTGCGTCATTTAGAACCCAATTGGGTCCAGATGTTATGGGCATCGACGAGTTACCGTCTCGGAAACTCTCAATCACGCAAGCGAAAGGAGAGGAGGCGGCTAATTAAATATTGAGCAGAAAGTCGCGTGGGGAGAATGTCACGTGGGTCTGGAGGCTCAAGGAGGCTGGGATAAATACCGCAAGGCACTGAGCAGGCGAAAGAGCGCGCTCGGACCTCCT (double strand)", "values": [{"measurement": "activity on this sequence", "setting": "ICERIIγ (co-transfected)", "result": "active"}, {"measurement": "activity on this sequence", "setting": "[1]", "result": "active"}]}, {"sequence": "TGACGTCT (double strand) [CRE-PPT-I wild type]", "values": [{"measurement": "binding result", "setting": "[2]; [3]", "result": "binds"}]}, {"sequence": "TTGCGTCA (double strand) [CRE-like-PPT-I wild type]", "values": [{"measurement": "binding result", "setting": "[2]; [3]", "result": "binds"}]}, {"sequence": "TTGTGCAC (double strand) [CRE-like-PPT-I mutant]", "values": [{"measurement": "binding result", "setting": "[2]; mutant CRE-like not bound, variant of CRE-like-PPT-I wild type", "result": "no binding"}]}, {"sequence": "AGATGTTT (double strand) [CRE-PPT-I mutant]", "values": [{"measurement": "binding result", "setting": "[2]; mutant CRE not bound, variant of CRE-PPT-I wild type", "result": "no binding"}]}]}
